# Source: the supplement of paper PMC6411743
# Sequences of proteins named here, by UniProt entry; tags and fusion partners are left off. A change or cut given only in a name is not applied to a line headed by its entry.
# UniProt Q9H269: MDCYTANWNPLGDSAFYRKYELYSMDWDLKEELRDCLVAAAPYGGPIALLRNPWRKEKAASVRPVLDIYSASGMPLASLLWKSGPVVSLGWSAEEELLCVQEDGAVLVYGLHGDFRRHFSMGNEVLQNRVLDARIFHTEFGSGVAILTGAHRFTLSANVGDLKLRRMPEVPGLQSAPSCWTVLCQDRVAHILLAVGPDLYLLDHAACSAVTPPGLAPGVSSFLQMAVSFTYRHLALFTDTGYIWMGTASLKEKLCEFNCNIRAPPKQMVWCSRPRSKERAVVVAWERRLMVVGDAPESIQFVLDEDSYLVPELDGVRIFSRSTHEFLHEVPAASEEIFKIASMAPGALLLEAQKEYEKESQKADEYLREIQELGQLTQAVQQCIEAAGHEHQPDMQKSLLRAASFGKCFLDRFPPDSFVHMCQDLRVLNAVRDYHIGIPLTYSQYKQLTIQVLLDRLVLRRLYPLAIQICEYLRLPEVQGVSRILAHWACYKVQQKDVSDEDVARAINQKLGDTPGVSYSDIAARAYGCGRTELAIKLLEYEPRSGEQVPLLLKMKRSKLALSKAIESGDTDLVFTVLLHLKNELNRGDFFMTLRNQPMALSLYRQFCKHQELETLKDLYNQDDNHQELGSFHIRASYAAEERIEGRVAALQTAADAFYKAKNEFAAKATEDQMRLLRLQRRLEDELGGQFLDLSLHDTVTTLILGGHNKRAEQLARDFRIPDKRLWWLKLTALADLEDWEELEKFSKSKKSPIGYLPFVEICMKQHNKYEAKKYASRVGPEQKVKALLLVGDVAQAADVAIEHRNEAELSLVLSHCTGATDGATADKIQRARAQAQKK
# UniProt Q9H9B1: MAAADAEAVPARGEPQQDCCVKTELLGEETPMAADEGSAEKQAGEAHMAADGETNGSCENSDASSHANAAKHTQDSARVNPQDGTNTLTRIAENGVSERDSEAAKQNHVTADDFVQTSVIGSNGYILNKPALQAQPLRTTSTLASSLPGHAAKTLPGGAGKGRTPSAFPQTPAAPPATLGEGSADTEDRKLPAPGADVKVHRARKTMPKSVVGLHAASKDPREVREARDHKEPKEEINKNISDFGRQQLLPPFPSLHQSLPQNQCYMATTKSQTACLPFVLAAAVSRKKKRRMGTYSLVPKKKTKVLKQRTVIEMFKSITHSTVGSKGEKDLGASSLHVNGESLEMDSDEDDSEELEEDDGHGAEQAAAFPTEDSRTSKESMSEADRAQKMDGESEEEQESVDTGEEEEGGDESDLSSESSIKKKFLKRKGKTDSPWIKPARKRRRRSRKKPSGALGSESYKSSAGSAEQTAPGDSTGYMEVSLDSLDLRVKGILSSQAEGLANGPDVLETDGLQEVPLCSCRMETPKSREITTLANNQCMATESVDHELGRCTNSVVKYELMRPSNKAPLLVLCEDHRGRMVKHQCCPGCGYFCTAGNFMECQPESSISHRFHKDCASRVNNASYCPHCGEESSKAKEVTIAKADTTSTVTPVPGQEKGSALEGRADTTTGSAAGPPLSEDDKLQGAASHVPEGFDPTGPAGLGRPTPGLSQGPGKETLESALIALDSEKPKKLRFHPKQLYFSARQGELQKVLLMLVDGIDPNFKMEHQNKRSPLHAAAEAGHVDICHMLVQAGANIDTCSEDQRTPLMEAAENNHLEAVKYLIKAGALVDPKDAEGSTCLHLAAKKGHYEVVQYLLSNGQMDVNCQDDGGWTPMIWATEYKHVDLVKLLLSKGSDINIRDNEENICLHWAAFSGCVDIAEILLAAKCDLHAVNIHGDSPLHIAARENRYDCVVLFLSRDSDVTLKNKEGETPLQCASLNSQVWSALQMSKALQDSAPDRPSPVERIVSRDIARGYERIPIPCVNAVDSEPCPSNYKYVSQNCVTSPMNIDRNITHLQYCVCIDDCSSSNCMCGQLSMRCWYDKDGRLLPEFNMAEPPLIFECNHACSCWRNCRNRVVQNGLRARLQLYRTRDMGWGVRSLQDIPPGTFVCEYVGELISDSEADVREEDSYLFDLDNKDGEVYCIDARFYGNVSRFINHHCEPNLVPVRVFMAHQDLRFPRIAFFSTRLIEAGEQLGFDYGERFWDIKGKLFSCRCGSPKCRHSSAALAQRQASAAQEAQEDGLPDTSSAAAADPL
# UniProt Q9GZY4: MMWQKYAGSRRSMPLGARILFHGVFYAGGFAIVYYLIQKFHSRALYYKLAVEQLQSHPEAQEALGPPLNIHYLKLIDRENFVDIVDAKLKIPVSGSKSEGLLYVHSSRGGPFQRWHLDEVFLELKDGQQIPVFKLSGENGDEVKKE
# UniProt Q9NP80: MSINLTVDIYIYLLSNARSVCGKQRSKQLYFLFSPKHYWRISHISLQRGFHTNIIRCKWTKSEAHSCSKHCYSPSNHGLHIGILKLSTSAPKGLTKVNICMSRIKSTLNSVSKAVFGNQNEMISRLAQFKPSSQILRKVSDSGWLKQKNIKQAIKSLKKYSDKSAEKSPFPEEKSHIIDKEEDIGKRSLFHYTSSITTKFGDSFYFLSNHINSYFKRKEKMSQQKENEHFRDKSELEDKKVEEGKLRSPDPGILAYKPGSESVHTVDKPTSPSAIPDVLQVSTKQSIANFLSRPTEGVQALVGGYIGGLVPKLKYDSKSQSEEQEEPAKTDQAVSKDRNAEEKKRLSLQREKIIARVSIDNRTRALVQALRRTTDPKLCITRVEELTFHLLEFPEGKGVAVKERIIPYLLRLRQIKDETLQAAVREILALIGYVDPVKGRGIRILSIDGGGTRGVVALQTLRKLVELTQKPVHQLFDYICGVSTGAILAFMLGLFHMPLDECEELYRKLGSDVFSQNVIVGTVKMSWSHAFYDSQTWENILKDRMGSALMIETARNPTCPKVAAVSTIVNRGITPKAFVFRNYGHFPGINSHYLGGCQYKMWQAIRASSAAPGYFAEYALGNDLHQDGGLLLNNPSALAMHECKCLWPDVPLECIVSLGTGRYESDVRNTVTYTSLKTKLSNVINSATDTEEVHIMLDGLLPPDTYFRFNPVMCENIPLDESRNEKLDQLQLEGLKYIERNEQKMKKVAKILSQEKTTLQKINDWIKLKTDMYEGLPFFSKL
# UniProt Q9HCD6: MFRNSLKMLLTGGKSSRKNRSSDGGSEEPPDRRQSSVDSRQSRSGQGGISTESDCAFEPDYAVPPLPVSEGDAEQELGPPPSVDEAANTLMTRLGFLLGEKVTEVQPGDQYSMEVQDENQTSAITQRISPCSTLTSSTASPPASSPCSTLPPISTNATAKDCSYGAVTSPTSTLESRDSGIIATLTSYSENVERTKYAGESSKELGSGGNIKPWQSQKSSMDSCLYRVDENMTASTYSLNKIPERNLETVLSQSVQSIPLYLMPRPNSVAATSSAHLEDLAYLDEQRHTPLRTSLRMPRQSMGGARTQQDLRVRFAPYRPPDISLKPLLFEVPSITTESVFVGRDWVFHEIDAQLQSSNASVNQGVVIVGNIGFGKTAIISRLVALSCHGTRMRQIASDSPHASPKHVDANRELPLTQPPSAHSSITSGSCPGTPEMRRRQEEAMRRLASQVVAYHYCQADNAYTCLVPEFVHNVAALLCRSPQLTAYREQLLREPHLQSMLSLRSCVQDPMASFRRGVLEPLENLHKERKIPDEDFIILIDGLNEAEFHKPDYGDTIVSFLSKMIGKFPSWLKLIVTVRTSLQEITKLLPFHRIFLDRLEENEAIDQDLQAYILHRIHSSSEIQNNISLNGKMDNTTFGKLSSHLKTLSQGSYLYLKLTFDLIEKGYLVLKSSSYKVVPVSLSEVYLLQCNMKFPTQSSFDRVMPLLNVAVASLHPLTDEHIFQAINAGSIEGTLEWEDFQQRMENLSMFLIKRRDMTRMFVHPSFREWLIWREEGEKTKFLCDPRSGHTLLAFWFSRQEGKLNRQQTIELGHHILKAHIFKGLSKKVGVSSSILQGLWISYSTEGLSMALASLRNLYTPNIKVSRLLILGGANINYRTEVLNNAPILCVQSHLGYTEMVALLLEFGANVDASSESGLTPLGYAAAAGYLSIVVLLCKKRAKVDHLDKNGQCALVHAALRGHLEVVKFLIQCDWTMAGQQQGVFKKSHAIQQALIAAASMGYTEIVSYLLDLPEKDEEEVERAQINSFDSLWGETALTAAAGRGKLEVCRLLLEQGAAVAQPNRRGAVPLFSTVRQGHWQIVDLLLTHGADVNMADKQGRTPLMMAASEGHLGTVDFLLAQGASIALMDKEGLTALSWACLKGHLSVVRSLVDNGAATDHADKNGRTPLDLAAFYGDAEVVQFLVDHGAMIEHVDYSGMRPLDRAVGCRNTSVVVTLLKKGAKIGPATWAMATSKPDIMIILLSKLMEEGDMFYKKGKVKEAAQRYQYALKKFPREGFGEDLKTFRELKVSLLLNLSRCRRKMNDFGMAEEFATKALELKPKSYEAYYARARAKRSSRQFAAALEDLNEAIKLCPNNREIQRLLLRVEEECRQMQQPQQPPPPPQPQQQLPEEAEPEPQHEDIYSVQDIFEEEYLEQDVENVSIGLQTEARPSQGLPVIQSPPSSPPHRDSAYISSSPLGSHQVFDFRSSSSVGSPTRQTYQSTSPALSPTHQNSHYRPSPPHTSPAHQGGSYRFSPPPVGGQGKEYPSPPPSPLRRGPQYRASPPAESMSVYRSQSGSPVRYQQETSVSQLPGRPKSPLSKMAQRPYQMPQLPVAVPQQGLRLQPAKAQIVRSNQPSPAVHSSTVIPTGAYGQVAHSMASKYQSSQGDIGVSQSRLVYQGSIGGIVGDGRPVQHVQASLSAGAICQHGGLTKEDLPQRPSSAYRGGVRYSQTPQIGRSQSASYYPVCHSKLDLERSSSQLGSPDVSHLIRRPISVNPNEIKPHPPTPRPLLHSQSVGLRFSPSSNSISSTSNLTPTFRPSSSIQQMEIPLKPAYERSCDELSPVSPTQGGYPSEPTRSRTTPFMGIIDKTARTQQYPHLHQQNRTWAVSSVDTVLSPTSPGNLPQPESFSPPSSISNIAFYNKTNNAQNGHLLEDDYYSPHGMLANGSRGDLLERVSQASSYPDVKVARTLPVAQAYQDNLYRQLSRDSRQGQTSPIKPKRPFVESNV
# UniProt Q9H2F5, whole entry: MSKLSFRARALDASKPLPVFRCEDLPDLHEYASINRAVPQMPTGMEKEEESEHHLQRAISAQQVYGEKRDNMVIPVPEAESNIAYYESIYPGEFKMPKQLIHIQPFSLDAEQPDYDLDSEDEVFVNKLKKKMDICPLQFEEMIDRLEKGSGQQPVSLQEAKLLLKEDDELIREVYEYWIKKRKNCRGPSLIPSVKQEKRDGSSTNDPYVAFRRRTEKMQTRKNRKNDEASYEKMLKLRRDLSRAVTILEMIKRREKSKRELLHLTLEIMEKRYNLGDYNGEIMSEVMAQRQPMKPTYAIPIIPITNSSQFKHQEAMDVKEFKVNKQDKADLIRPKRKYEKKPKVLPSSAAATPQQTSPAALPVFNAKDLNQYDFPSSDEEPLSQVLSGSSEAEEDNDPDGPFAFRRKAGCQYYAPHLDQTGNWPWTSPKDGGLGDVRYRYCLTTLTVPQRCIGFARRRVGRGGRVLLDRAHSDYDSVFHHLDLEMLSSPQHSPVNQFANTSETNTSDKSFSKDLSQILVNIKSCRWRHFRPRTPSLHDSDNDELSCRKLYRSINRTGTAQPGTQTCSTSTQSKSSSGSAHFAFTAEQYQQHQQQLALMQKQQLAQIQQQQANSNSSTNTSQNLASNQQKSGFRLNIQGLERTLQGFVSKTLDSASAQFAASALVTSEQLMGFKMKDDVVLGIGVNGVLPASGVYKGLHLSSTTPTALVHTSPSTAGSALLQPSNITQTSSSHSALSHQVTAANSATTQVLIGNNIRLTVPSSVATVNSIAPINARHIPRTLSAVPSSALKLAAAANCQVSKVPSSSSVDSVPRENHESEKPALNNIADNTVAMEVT
# UniProt Q9H425: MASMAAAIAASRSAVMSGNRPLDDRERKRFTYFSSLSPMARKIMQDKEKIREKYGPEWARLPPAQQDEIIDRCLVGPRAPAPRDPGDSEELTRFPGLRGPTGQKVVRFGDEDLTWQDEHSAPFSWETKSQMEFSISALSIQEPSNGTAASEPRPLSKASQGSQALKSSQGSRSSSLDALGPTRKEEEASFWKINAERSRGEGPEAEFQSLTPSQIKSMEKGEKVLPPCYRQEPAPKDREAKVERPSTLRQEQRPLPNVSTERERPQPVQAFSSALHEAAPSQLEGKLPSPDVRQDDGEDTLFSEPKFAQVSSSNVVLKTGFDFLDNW
# UniProt Q9H081: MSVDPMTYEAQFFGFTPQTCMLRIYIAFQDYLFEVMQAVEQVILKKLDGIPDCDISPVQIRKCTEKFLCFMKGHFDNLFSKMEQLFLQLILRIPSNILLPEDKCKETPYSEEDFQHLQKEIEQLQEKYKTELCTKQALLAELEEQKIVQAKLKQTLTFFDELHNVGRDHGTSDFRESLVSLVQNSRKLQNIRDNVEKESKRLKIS
# UniProt Q9H2H8: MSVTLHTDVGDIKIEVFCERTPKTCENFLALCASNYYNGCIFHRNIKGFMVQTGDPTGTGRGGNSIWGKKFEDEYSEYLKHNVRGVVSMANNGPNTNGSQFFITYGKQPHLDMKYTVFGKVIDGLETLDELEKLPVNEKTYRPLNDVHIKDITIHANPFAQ
# ± gives the standard deviation of the averaged measurements. The list shows a part of the results, in another mix than the full data.
# Compound: Nc1ncnc2c1ncn2[C@@H]1O[C@H](COP(=O)(O)OP(=O)(O)NP(=O)(O)O)[C@@H](O)[C@H]1O [adenylyl imidodiphosphate]
# Test: NP40-soluble protein abundance relative to vehicle (solubility fold change) (ratio); higher = more soluble protein in presence of AMP-PNP
# How it was run: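 In three independent experiments, Jurkat crude lysate made by Dounce homogenisation was treated for 10 min at room temperature and then 3 min at 37 °C with eight concentrations ranging from 0.1 to 10 mM. It was then solubilised with 0.8% NP40 plus benzonase for 60 min at 4 °C and ultracentrifuged. The supernatant was TMT-labelled for LC-MS/MS, and each value is the fold change against the detergent-processed vehicle for the same replicate, using vsn-normalised intensities.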
Target,NP40-soluble protein abundance (concentration: 1mM),NP40-soluble protein abundance (concentration: 2mM),NP40-soluble protein abundance (concentration: 4mM),NP40-soluble protein abundance (concentration: 6mM),NP40-soluble protein abundance (concentration: 8mM),NP40-soluble protein abundance (concentration: 10mM)
UniProt Q9HCE5,0.984 ± 0.026,0.955 ± 0.047,0.949 ± 0.034,0.945 ± 0.0095,0.93 ± 0.014,0.908 ± 0.027
UNK (UniProt Q9C0B0),1.071 ± 0.0069,1.12 ± 0.056,1.11 ± 0.021,1.09 ± 0.072,1.1 ± 0.045,1.11 ± 0.033
UniProt Q9HAF1 and related entries,0.983 ± 0.03,1.04 ± 0.049,1.02 ± 0.044,1.08 ± 0.06,1.11 ± 0.07,1.19 ± 0.11
HMG20A (UniProt Q9NP66),0.999 ± 0.083,1.05 ± 0.014,1.03 ± 0.084,1.04 ± 0.026,1.1 ± 0.039,1.09 ± 0.037
VPS16 (UniProt Q9H269),1.014 ± 0.0028,0.909 ± 0.076,0.978 ± 0.042,0.9357 ± 0.0082,0.988 ± 0.058,0.911 ± 0.046
UniProt Q9H9B1 and related entries,0.997 ± 0.015,1.01 ± 0.024,1 ± 0.014,1.01 ± 0.023,0.981 ± 0.012,1.02 ± 0.027
CHD8 (UniProt Q9HCK8),1 ± 0.025,0.983 ± 0.036,0.996 ± 0.044,0.957 ± 0.027,0.972 ± 0.029,0.966 ± 0.028
ISCU (UniProt Q9H1K1),1.01 ± 0.039,1.06 ± 0.018,0.987 ± 0.043,0.969 ± 0.03,0.96 ± 0.054,0.958 ± 0.047
UniProt Q9H0R4 and related entries,0.982 ± 0.051,0.932 ± 0.039,0.9323 ± 0.0072,0.988 ± 0.049,0.947 ± 0.052,0.957 ± 0.043
UPF2 (UniProt Q9HAU5),0.998 ± 0.03,1.02 ± 0.059,0.999 ± 0.015,1.005 ± 0.01,1.007 ± 0.0027,1.02 ± 0.013
UniProt Q9GZY4,0.995 ± 0.024,0.939 ± 0.041,1.01 ± 0.022,0.977 ± 0.015,0.9936 ± 0.0057,1.01 ± 0.051
UniProt Q9H165 and related entries,0.957 ± 0.022,0.977 ± 0.037,0.965 ± 0.018,0.937 ± 0.013,0.952 ± 0.048,0.963 ± 0.029
UniProt Q9HCC0-2,0.993 ± 0.021,0.967 ± 0.015,0.961 ± 0.0066,0.963 ± 0.054,0.932 ± 0.021,0.955 ± 0.017
UniProt Q9NP80 and related entries,0.996 ± 0.008,1.04 ± 0.059,1.02 ± 0.011,1.003 ± 0.0022,0.99 ± 0.039,1.01 ± 0.039
LYRM4 (UniProt Q9HD34),0.95 ± 0.035,0.941 ± 0.046,0.943 ± 0.024,0.96 ± 0.045,0.976 ± 0.03,0.952 ± 0.038
UniProt Q9HCD6 and related entries,1.014 ± 0.0088,1.03 ± 0.03,0.9865 ± 0.0061,1.019 ± 0.0037,0.999 ± 0.013,0.99957 ± 4.1e-05
ACTR5 (UniProt Q9H9F9),1.05 ± 0.048,1.07 ± 0.037,1.07 ± 0.043,1.13 ± 0.018,1.14 ± 0.027,1.14 ± 0.024
UniProt Q9H3H3-2|Q9H3H3-3,0.962 ± 0.061,0.928 ± 0.017,0.9666 ± 0.0066,0.985 ± 0.053,1 ± 0.033,0.978 ± 0.019
ETNK1 (UniProt Q9HBU6),0.989 ± 0.047,0.907 ± 0.088,0.991 ± 0.047,0.914 ± 0.046,0.9757 ± 0.0013,0.887 ± 0.084
UniProt Q9H2U1 and related entries,1.044 ± 0.0074,1.01 ± 0.071,1.02 ± 0.02,1.04 ± 0.021,1.02 ± 0.039,1.03 ± 0.028
WDR33 (UniProt Q9C0J8),1.04 ± 0.023,1.06 ± 0.014,1.12 ± 0.037,1.12 ± 0.023,1.14 ± 0.036,1.2 ± 0.07
UniProt Q9H2F5-2|Q9H2F5 and related entries,0.9929 ± 0.0039,0.982 ± 0.065,0.978 ± 0.035,0.986 ± 0.014,1.004 ± 0.0054,1.01 ± 0.032
UniProt Q9BZI7 and related entries,1.05 ± 0.014,1.09 ± 0.054,1.05 ± 0.031,1.02 ± 0.049,1.02 ± 0.028,1.02 ± 0.021
UniProt Q9H6W3,1.02 ± 0.056,0.997 ± 0.055,1.02 ± 0.065,1.02 ± 0.065,1.06 ± 0.056,1.04 ± 0.086
RRAGC (UniProt Q9HB90),1.01 ± 0.037,1.01 ± 0.024,0.988 ± 0.025,1.03 ± 0.012,0.991 ± 0.018,1.022 ± 0.01
UniProt Q9H425 and related entries,1.05 ± 0.017,1.06 ± 0.017,1.04 ± 0.029,1.02 ± 0.057,0.98 ± 0.03,0.995 ± 0.018
MED20 (UniProt Q9H944),0.959 ± 0.016,0.911 ± 0.033,0.963 ± 0.03,1.04 ± 0.057,1.04 ± 0.047,1.04 ± 0.05
CWC22 (UniProt Q9HCG8),1.04 ± 0.043,1.09 ± 0.061,1.07 ± 0.05,1.05 ± 0.08,1.03 ± 0.059,1.09 ± 0.056
MIS12 (UniProt Q9H081),1 ± 0.037,1.01 ± 0.016,1 ± 0.071,0.927 ± 0.05,0.938 ± 0.022,0.909 ± 0.039
UniProt Q9H2H8 and related entries,1.04 ± 0.038,1.04 ± 0.032,1.04 ± 0.017,0.998 ± 0.031,1.02 ± 0.018,1.03 ± 0.038

# Seven neighbouring entries out of the list so far, for reference:
Target,NP40-soluble protein abundance (concentration: 1mM),NP40-soluble protein abundance (concentration: 2mM),NP40-soluble protein abundance (concentration: 4mM),NP40-soluble protein abundance (concentration: 6mM),NP40-soluble protein abundance (concentration: 8mM),NP40-soluble protein abundance (concentration: 10mM)
HMG20A (UniProt Q9NP66),0.999 ± 0.083,1.05 ± 0.014,1.03 ± 0.084,1.04 ± 0.026,1.1 ± 0.039,1.09 ± 0.037
VPS16 (UniProt Q9H269),1.014 ± 0.0028,0.909 ± 0.076,0.978 ± 0.042,0.9357 ± 0.0082,0.988 ± 0.058,0.911 ± 0.046
UniProt Q9H9B1 and related entries,0.997 ± 0.015,1.01 ± 0.024,1 ± 0.014,1.01 ± 0.023,0.981 ± 0.012,1.02 ± 0.027
CHD8 (UniProt Q9HCK8),1 ± 0.025,0.983 ± 0.036,0.996 ± 0.044,0.957 ± 0.027,0.972 ± 0.029,0.966 ± 0.028
ISCU (UniProt Q9H1K1),1.01 ± 0.039,1.06 ± 0.018,0.987 ± 0.043,0.969 ± 0.03,0.96 ± 0.054,0.958 ± 0.047
UniProt Q9H0R4 and related entries,0.982 ± 0.051,0.932 ± 0.039,0.9323 ± 0.0072,0.988 ± 0.049,0.947 ± 0.052,0.957 ± 0.043
UPF2 (UniProt Q9HAU5),0.998 ± 0.03,1.02 ± 0.059,0.999 ± 0.015,1.005 ± 0.01,1.007 ± 0.0027,1.02 ± 0.013
